Measured values published in PubChem BioAssay AID743238 (Broad Institute, 2013).
Screen size: about 360,000 compounds; about 200 (0.056%) were called active. The inconclusive results got no clear call from the source; some entries with a clear call stand among them for comparison.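 Rule for the calls: active = mean normalized replicate activation at least 10% and every replicate at or above 10%; inconclusive = only one of the two criteria met; inactive = mean below 10% and not all replicates reach 10%.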

Test: activators of inactive X chromosome reactivation, primary screen, imaging, XiGFP fibroblasts, GFP high-content imaging, set 2 (AID 743238);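 note: 0% = median of on-plate neutral control wells and 100% = ellipticine 6 µM median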
Conditions: XiGFP mouse fibroblasts, % GFP-positive cells imaging, 3 d; at 7.58 µM; hits give high values; cells co-treated with 5-aza-dC sensitizer; scaled so ellipticine positive control = 100%
In short: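 System: XiGFP fibroblasts, SV40-immortalized. Medium: DMEM plus 5-aza-dC sensitizer. Doses: single point. Timing: 3 d treatment, 15 min room-temperature fixation. Control set: ellipticine 6 µM.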
In the case of O=C(CSc1ccc(-c2ccccn2)nn1)N1CCCC1, the activation is reported as inactive: -0.1%. With COc1ccc(N2CCN(C(=O)c3cc4c(s3)-c3ccccc3OC4)CC2)cc1 the activation was inconclusive: 14.2%. For CC(=O)c1csc(-c2cccc(-c3nc4ccc(Cl)cn4c3NC3CCCCC3)c2)c1, the activation was inactive: 0.0055%. For Cc1ccc2cc3c(N)c(C(=O)Nc4c(C)[nH]c(=O)[nH]c4=O)sc3nc2c1, the activation was inconclusive: 12.6%. With CC(C)C(NC(=O)c1ccc(F)cc1)C(=O)NCC1CCCO1 (configuration not stated) the activation was inconclusive: 28.5%. For Cc1nc(SCc2ccc(F)cc2)n[nH]1, the activation was inactive: -0.0155%. In the case of CO[C@H](CN(C)C(=O)Nc1ccc(C(F)(F)F)cc1)[C@@H](C)CN(Cc1ccccc1Cl)[C@@H](C)CO, the activation is reported as inconclusive: 22.9%. In the case of COc1ccc(NC(=O)NNS(=O)(=O)c2cc(C)ccc2C)cc1OC, the activation is reported as inactive: -0.012%. For O=C(OCc1cccc(F)c1)c1ccc2c(=O)n3c(nc2c1)CCC3, the activation was inconclusive: 10%. In the case of O=C1C(SCCO)=C(SCCO)C(=O)c2ccccc21, the activation is reported as active: 88.4%. In the case of COc1ccc2c3c(n(C)c2c1)[C@@H](CO)N(C(=O)NC(C)C)CC31CN(C(C)=O)C1, the activation is reported as inconclusive: 36.9%. With CC(C)(C=O)C1=CC(=O)c2ccccc2C1=O the activation was active: 17.6%. In the case of O=c1[nH]cnc2c1ncn2[C@H]1CC[C@@H](CO)O1, the activation is reported as inconclusive: 19.9%. With CCOC(=O)N1CCN(C(=O)Cn2ccc3c(OC)cccc3c2=O)CC1 the activation was inconclusive: 10%. In the case of COc1ccccc1CNc1cc(-c2ccccc2)ccc1OC, the activation is reported as inactive: 0.0855%. With O=C(NCC[C@H]1CC[C@H](NC(=O)c2cnccn2)[C@@H](CO)O1)Nc1ccc(Cl)cc1 the activation was inactive: 0.259%. With Cc1ccc(-c2cn3nc(-c4ccccc4)c(-c4ccccc4)nc3n2)cc1 the activation was active: 78.5%. In the case of CCSc1nnc(NC(=O)c2cc(OC)c(OC)c(OC)c2)s1, the activation is reported as inconclusive: 14.6%. For O=c1oc2cc(O)ccc2cc1-c1nc2c(s1)CCc1ccccc1-2, the activation was active: 95.5%. For COc1ccc(CN(C)C[C@H]2OCCCC[C@H](C)Oc3ccc(NC(=O)Nc4ccc(F)cc4)cc3C(=O)N([C@H](C)CO)C[C@H]2C)cc1, the activation was inconclusive: 19.1%. In the case of Cc1ccc(-c2ccccc2[C@@H]2[C@H](C#N)N(S(C)(=O)=O)[C@H]2CO)cc1, the activation is reported as inconclusive: 10.1%. With Cc1cc2oc3ccc(NCCCn4ccnc4)cc3c(=O)c2cc1C the activation was inconclusive: 11.5%. In the case of COc1ccc(N(C)S(=O)(=O)c2cccc(C(=O)NCC(c3cccs3)N(C)C)c2)cc1 (configuration not stated), the activation is reported as inconclusive: 11.1%. With Cc1cccc2cc3c(N)c(C(=O)N4CCc5ccccc54)sc3nc12 the activation was inconclusive: 11.4%. For CCNC(=O)CC1C(=O)N(c2ccc(F)cc2)C(=S)N1CCc1ccncc1 (configuration not stated), the activation was inactive: 0.516%. With COc1ccc(CCCc2nc3ccccc3[nH]2)cc1 the activation was active: 30.2%. In the case of COCCNC(=S)N(Cc1cccnc1)Cc1ccc(OC)c(OC)c1, the activation is reported as inconclusive: 19.7%. For O=C(Nc1c(F)cccc1F)C(c1ccccc1)c1ccccc1, the activation was inconclusive: 18.8%. In the case of C[C@@H]1COc2cccc(NCCO)c2S(=O)(=O)N1, the activation is reported as inconclusive: 19.7%. In the case of Cc1ccc2[nH]c(C)c(/C=C/c3cc[n+](C)cc3)c2c1, the activation is reported as active: 45.3%. For CN(C)C(=O)CSc1nc2ccc(C(=O)c3ccccc3)cc2[nH]1, the activation was inactive: 0.0915%. For Nc1nnc(CC(=O)N/N=C\c2cc([N+](=O)[O-])ccc2O)s1, the activation was inactive: 0.034%. With Cc1ccccc1NC(=O)c1cn2c(nc3ccccc32)c(C#N)c1C the activation was inconclusive: 13.7%. With C/C(=N\NC(=O)CC1N=C(Cc2ccccc2)NNC1=O)c1ccc(Br)cc1 (configuration not stated) the activation was inconclusive: 12.1%. With COc1ccccc1N1N=C(c2ccc([N+](=O)[O-])cc2)CC1c1ccccc1 (configuration not stated) the activation was inconclusive: 20.3%. In the case of Cc1cccc(-c2ccc([C@H]3[C@H](CO)N4CCCCN(C(=O)NC(C)C)C[C@@H]34)cc2)c1, the activation is reported as inconclusive: 10.8%. In the case of CCCCN(C)C1=CC2=CC(=C(C#N)C#N)CCC2CC1 (configuration not stated), the activation is reported as inconclusive: 214%. With O=[N+]([O-])c1ccc(C2=NN(c3ccccc3)C(c3ccco3)C2)cc1 (configuration not stated) the activation was active: 86%. For Cc1oc2ccc(NS(=O)(=O)c3cccc4cccnc34)cc2c1C(=O)OC(C)C, the activation was inconclusive: 28.3%. In the case of Brc1ccc(-c2cn3ccccc3n2)cc1, the activation is reported as inconclusive: 14.9%. With N#C/C(=C/c1ccc(N2CCCCC2)o1)C(=O)Nc1ccc2ccccc2c1 the activation was active: 109%. With Cn1c(NC(=O)c2ccc(F)cc2)c(-c2ccccn2)c(=O)c2ccccc21 the activation was inconclusive: 15.1%. With NC(=O)c1sc2nc3c(cc2c1N)CCCCCC3 the activation was inconclusive: 17.9%. With CCN(CC(=O)Nc1sc2c(c1C#N)CCCC2)CC(=O)NC1CCS(=O)(=O)C1 (configuration not stated) the activation was inconclusive: 44.6%. For Cc1ccccc1NC(=O)c1c(C)[nH]c(=S)c(C#N)c1-c1ccc(Cl)cc1, the activation was inconclusive: 20.5%. In the case of COc1ccc(NC(=O)N(C)C[C@@H]2Oc3c(NS(=O)(=O)c4ccccc4)cccc3C(=O)N([C@@H](C)CO)C[C@H]2C)cc1, the activation is reported as inactive: 0.0055%. With C=CCn1c(=S)[nH]c2scc(-c3ccco3)c2c1=O the activation was inconclusive: 29.9%. For CN(Cc1cccs1)C(=O)Cc1c[nH]c2ccccc12, the activation was inconclusive: 10.4%. With Cc1ccc(NC(=O)/C=C/c2ccc([N+](=O)[O-])s2)cc1 the activation was active: 96.9%. For CCOc1ccc(CCN2C(=S)N([C@@H](Cc3ccccc3)CN3CCC[C@@H]3CN3C(=S)NC[C@@H]3CC(C)C)C[C@@H]2Cc2ccccc2)cc1, the activation was inconclusive: 22.5%. For CC(C)(C)C(=O)/C=c1\s/c(=C\c2ccc(-c3ccc([N+](=O)[O-])cc3)o2)c(=O)n1CC(=O)NC(N)=O, the activation was active: 110%. For COc1ccc(NC(=O)C(C)N2C(=O)c3ccccc3C2=O)c(OC)c1 (configuration not stated), the activation was inconclusive: 18.9%.
